Data from the supplement of paper PMC5407854, “Inhibitor of ppGalNAc-T3-mediated O-glycosylation blocks cancer cell invasiveness and lowers FGF23 levels” (eLife, 2017).
Some of the results follow. Most entries show no effect beyond the scatter of the controls.

Assays:
ppGalNAc-T3 sensor = test: T3 sensor activation Q score (MG/GFP ratio z-score vs DMSO controls) (SD units); higher = more sensor activation (inhibition of ppGalNAc-T3 glycosylation); conditions: HEK293 sensor cells; 10 µM; 6 h
Procedure: (§1)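 Cells were treated with compound at 10 uM for 6 h, then MG/GFP ratio was read by flow cytometry (10,000 cells per well, duplicate wells). Q = (R - R_neg)/SD_neg relative to DMSO vehicle controls; the signal rises when the glycosyltransferase is inhibited.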

ppGalNAc-T2 sensor = test: T2 sensor activation Q score (MG/GFP ratio z-score vs DMSO controls) (SD units); higher = more sensor activation (inhibition of ppGalNAc-T2 glycosylation); conditions: HEK293 sensor cells; 10 µM; 6 h
Procedure: as §1

Compound | T3 sensor activation Q score (ppGalNAc-T3 sensor) | T2 sensor activation Q score (ppGalNAc-T2 sensor)
O=[N+]([O-])c1ccc(C(O)CC(O)C(Cl)(Cl)Cl)cc1 (configuration not stated) | -0.265 | 0.865
O=C(Nc1cccc(Cl)c1)N1CCN(c2ccc([N+](=O)[O-])cc2)CC1 | 0.24 | -0.445
Cc1ccc(SCC(=O)N2CCN(Cc3ccccc3)CC2)cc1 | -0.765 | -1.14
COc1ccccc1C(=O)Nc1ccc(C)c(Cl)c1 | -0.405 | -0.97
CC(=O)c1ccc(N2CCN(C(=O)c3ccc(F)cc3F)CC2)c(F)c1 | 0.175 | -0.025
O=S(=O)(c1ccc(Cl)c(Cl)c1)N1CCCCC1 | 0.495 | -0.455
C=CCSc1nc(O)c(CC)c(=O)n1-c1ccccc1 | -0.3 | 0.79
COc1ccc(S(=O)(=O)N2CCCCC2)cc1OC | 0.67 | -0.335
Cc1ccc2nc(NCCCO)[nH]c2c1 | -0.305 | 1
c1csc(-c2cnc3ccccc3n2)c1 | 1.2 | -0.785
COc1cc(S(=O)(=O)N2CCOCC2)c(OC)cc1Cl | -0.445 | 0.695
O=C(Nc1ccccc1Br)c1ccco1 | -0.58 | -0.3
COc1cccc(Oc2nc(N)[nH]c(=O)c2Br)c1 | -0.51 | 1.38
O=[N+]([O-])c1ccc(S(=O)(=O)Nc2ccc(F)cc2)cc1 | 0.16 | -1.56
CCOc1ccc(N2C(=O)CC(SCC(=O)Nc3ccc(F)cc3)C2=O)cc1 (configuration not stated) | -0.21 | -0.865
COc1ccc(OC)c(NC2=NS(=O)(=O)c3ccccc32)c1 | 0.39 | 0.565
CC(C)Sc1nc2ncnc(N)c2[nH]1 | 0.575 | 1.35
COc1ccc(-c2nc3ccccc3[nH]2)cc1 | 0.7 | -0.55
CCOc1ccc(NC(=O)Cc2ccccc2)cc1 | -0.23 | -0.29
CCN1CCN(C2CC(=O)N(c3ccc(OC)cc3)C2=O)CC1 (configuration not stated) | -0.02 | -0.255
COc1ccc(S(=O)(=O)Nc2ccc(N3CCOCC3)cc2)cc1 | 0.45 | -0.975
O=C(Nc1ccc(F)cc1F)c1cccs1 | 0 | -0.275
O=C(c1ccc(F)cc1)n1cnc2ccccc21 | -0.205 | -0.365
Cc1nc2sc(C(=O)c3ccccc3)c(N)c2c(C)c1C | -0.795 | -0.08

Compound | T3 sensor activation Q score (ppGalNAc-T3 sensor) | T2 sensor activation Q score (ppGalNAc-T2 sensor)
CCCCOc1ccc(C2(C(=O)O)CCCC2)cc1 | 0.6 | 0.15
CCOc1ccccc1N1CCN(Cc2cc3c(cc2[N+](=O)[O-])OCO3)CC1 | 0.115 | -0.12
O=C(COc1ccc(Cl)cc1)Nc1ccc(Br)cc1 | 0.245 | 0.785
CC(=O)Nc1ccc(S(=O)(=O)NCCc2ccccc2)cc1 | 0.245 | -0.665
CC(C)(C)NS(=O)(=O)c1ccccc1 | -0.605 | 0.64
CC(=O)Nc1cccc(N2CCCC2=O)c1 | 0.41 | -0.785
CC(C)CSc1nnc2c(n1)[nH]c1ccccc12 | 0.505 | -0.59
C=CCc1ccccc1OCC(N)=O | 0.175 | -0.18
COc1ccc(CN2CCC(N3CCCCC3)CC2)c(OC)c1C | 1.45 | -1.71
COc1ccc(S(=O)(=O)Nc2cc(C)ccc2C)cc1 | -0.14 | -0.06
Cc1nc2sc(-c3ccccc3)nn2c(=O)c1Br | -0.065 | -0.565
Cc1ccc(-c2nnc(-c3ccccc3Cl)o2)cc1 | -0.105 | 0.07
Nc1ncc(Cc2cccc([N+](=O)[O-])c2)s1 | 0.085 | 0.095
NNC(=O)CNC(c1ccccc1)c1cc(Br)ccc1N (configuration not stated) | 0.4 | -1.02
Cc1ccc(S(=O)(=O)Nc2ccc(Cl)c(Cl)c2)cc1 | 0.46 | 0.69
COc1ccc(C(=O)NCCSC2CCCCC2)cc1 | -0.625 | 0.48
OC1CCN(Cc2ccc(F)cc2)CC1 | 0.24 | 1.2
COc1cccc(NC2=C(N(C)C)C(=O)c3ccccc3C2=O)c1 | -0.815 | -0.115
Cc1cn(CC(=O)c2ccccc2)c2ccccc12 | -0.115 | -0.435
COc1ccc(CN2CCSCC2)cc1C | -0.28 | 0.55
COc1ccc(NC2=CC(=O)CC(c3ccccc3)C2)cc1 (configuration not stated) | 0.045 | -0.315
CNC(=O)N1c2ccccc2CCc2ccccc21 | -0.41 | -0.315
CN(C)C1=C(Nc2cccc(Cl)c2)C(=O)c2ccccc2C1=O | -0.205 | -0.935
c1ccc(-n2cccc2CNC2CCCCC2)cc1 | 0.31 | -0.415

Compound | T3 sensor activation Q score (ppGalNAc-T3 sensor) | T2 sensor activation Q score (ppGalNAc-T2 sensor)
CCOc1ccccc1C(=O)Nc1ccc(Cl)cc1F | 0.345 | -0.24
CCCCOc1ccc(C(=O)NN)cc1 | 0.45 | -0.355
Cc1ccc(NS(C)(=O)=O)c(C)c1 | -0.04 | -0.135
Cc1ccc(C(=O)NCCCc2ccccc2)cc1C | 0.645 | 0.025
CCN1CCC(N2CCN(c3ccccc3)CC2)CC1 | 0.42 | -0.2
CN1CCN(S(=O)(=O)c2ccc(C(=O)O)cc2)CC1 | -0.25 | 0.555
COc1ccccc1N1CCN(Cc2ccc(OC)c(C)c2OC)CC1 | 0.33 | -0.695
CC(=O)C1=C(O)C(=O)N(Cc2ccccc2)C1c1ccccc1 (configuration not stated) | 0.46 | 0.21
CN(C)CC(O)Cn1c2ccc(Cl)cc2c2cc(Cl)ccc21 (configuration not stated) | -0.075 | 0.785
CC1C(C(=O)O)CC(C(=O)O)C1(C)C (configuration not stated) | 0 | 0.96
CCOc1cc(CN2CCc3ccccc3C2)ccc1OC | 0.685 | -0.515
CC(C)CS(=O)(=O)c1cccs1 | -0.05 | -0.9
NNC(=O)CNc1ccc(Cl)cc1Br | -0.3 | 0.25
CCCNC(=O)c1ccc(C(=O)NCCC)cc1 | 1.2 | -0.49
O=C(Nc1ccccc1)Nc1ccccc1Br | 0.5 | 1.66
Cc1nc2nc[nH]c2cc1Br | 0.46 | -0.005
O=C(NCCc1ccccc1)c1ccc(Cl)c(Cl)c1 | 0.465 | 0.8
CC1(C)CC(=O)C=C(Nc2ccccc2N)C1 | 0.65 | 0.015
CN(Cc1ccccc1)C(=O)c1cccnc1 | -0.415 | -1.73
COc1cc(OC)cc(C(=O)NC2C3CC4CC(C3)CC2C4)c1 (configuration not stated) | -0.965 | 0.545
CC(=O)c1cccc(NC(=O)c2cccs2)c1 | 0.245 | 0.025
COc1ccc2nccnc2c1[N+](=O)[O-] | 1.15 | 0.115
CN1CCC(O)(c2ccccc2)CC1 | 0 | 0.205
CCCNC1=C(N2CCCCC2)C(=O)c2ccccc2C1=O | 0.095 | 0.255

Compound | T3 sensor activation Q score (ppGalNAc-T3 sensor) | T2 sensor activation Q score (ppGalNAc-T2 sensor)
COc1ccc(CN2CCN(Cc3ccc4c(c3)OCO4)CC2)c(C)c1C | -0.225 | 0.315
O=C(O)c1c2c(nc3ccccc13)CCCC2 | -0.01 | -0.955
Cc1ncc(C23CC4CC(CC(C4)C2)C3)[nH]1 | 1.04 | 1.42
NS(=O)(=O)C#Cc1ccccc1 | 0.35 | 0.61
COc1ccc(CN2CCSCC2)c(C)c1C | 0.285 | -0.67
COc1ccc(Br)cc1S(=O)(=O)N1CC(C)CC(C)C1 (configuration not stated) | -0.12 | 0.91
Clc1ccc(-c2cn3ccccc3n2)cc1 | -1.02 | 0.505
CCCOc1ccc(C(=O)N2CCOCC2)cc1OC | 0.185 | 0.595
O=[N+]([O-])c1ccc(CN2CCC(O)CC2)cc1 | 1.11 | 2.04
O=[N+]([O-])c1ccccc1CN1CCCCCCC1 | 0 | -0.43
CCCC(C)(C)NC(=O)c1ccccc1 | 0.485 | -0.165
Cc1cccc(C)c1NC(=O)c1nccnc1C(=O)O | -0.28 | -1.84
CC(=O)Nc1ccc(S(=O)(=O)N2CCCC2)cc1 | -0.08 | -0.375
CCCCOc1ccc(CN2CCN(c3ccccn3)CC2)cc1 | 0.39 | -0.595
CC(=O)C1=C(O)C(=O)N(CCO)C1c1cccc(F)c1 (configuration not stated) | 0.12 | -0.155
CCCC(O)=C1C(=O)CC(C)(C)CC1=Nc1ccncc1 | -0.36 | -0.83
COc1cc2c(cc1OC)CN(Cc1ccc(Br)cc1)CC2 | 0.42 | -0.285
Fc1cccc(CN2CCOCC2)c1 | 0.91 | 0.055
NNC(=O)C(O)c1ccc(Cl)cc1 (configuration not stated) | -0.13 | -0.25
CCC1(CC)C(=O)N=C(N)NC1=O | 0.7 | -1.67
Cc1cccc(NC2=C([N+](=O)[O-])CS(=O)(=O)C2)c1 | -0.39 | -0.62
CC(=O)N1C(=O)C(=O)c2ccccc21 | 0.85 | 0.04
Cc1ccc(C)c(N2CCN(Cc3ccc(C)s3)CC2)c1 | 1.22 | -0.515
Cc1ccc(NC(=O)[C@@H]2C3C=CC(C3)[C@@H]2C(=O)O)c(C)c1 (some centres not stated) | -0.045 | -1.94

Compounds listed so far that contain a COOH group, in the order listed:
Compound | T3 sensor activation Q score (ppGalNAc-T3 sensor) | T2 sensor activation Q score (ppGalNAc-T2 sensor)
CCCCOc1ccc(C2(C(=O)O)CCCC2)cc1 | 0.6 | 0.15
CN1CCN(S(=O)(=O)c2ccc(C(=O)O)cc2)CC1 | -0.25 | 0.555
CC1C(C(=O)O)CC(C(=O)O)C1(C)C (configuration not stated) | 0 | 0.96
O=C(O)c1c2c(nc3ccccc13)CCCC2 | -0.01 | -0.955
Cc1cccc(C)c1NC(=O)c1nccnc1C(=O)O | -0.28 | -1.84
Cc1ccc(NC(=O)[C@@H]2C3C=CC(C3)[C@@H]2C(=O)O)c(C)c1 (some centres not stated) | -0.045 | -1.94

Additional structures

Compound | T3 sensor activation Q score (ppGalNAc-T3 sensor) | T2 sensor activation Q score (ppGalNAc-T2 sensor)
O=C1CCCc2nn(-c3ccccc3)nc21 | 0.03 | 0.09
COc1cc(OC)cc(C(=O)NCc2ccccc2Cl)c1 | -0.515 | -0.13
CCN1CCN(C2CC(=O)N(c3cccc(Cl)c3)C2=O)CC1 (configuration not stated) | -0.62 | -0.87
CCN(CC)S(=O)(=O)c1ccc(Br)c(C(=O)O)c1 | 0.55 | 0.62
O=C(NCc1cccnc1)c1ccc(F)cc1 | 0.925 | -0.18
NC(=O)C1CCN(C2CC(=O)N(c3cc(Cl)cc(Cl)c3)C2=O)CC1 (configuration not stated) | -0.23 | -0.08
COc1ccccc1NC1=CC(=O)CC(C)(C)C1 | -0.44 | -0.255
COc1cc(CN2CCCN(C)CC2)cc([N+](=O)[O-])c1O | -1.1 | 0.535
CCC(C)Sc1nc(O)c(C(C)CC)c(=O)[nH]1 (configuration not stated) | 0.28 | 0.25
CC(=O)C1=C(O)C(=O)N(C)C1c1ccc(Cl)cc1 (configuration not stated) | 0.43 | 0.05
NC(=O)CCSc1ccc(Cl)cc1 | 2.85 | 0.905
Cc1ccc(S(=O)(=O)Nc2ccc(OC(C)C)cc2)cc1 | -0.22 | -1.98
Cc1ccccc1OCC(=O)Nc1cccc(Cl)c1C | 0.04 | -1.02
O=c1c(Cl)c(Cl)cnn1Cc1ccccc1 | -0.28 | 0.215
CCOc1cc(CN2CCCCCC2)ccc1OC | 0.04 | 0.055
OC(C#Cc1ccccc1)c1cccs1 (configuration not stated) | 0.045 | 0.46
Nc1cccc(-c2nc3ccccc3s2)c1 | 0.575 | -1.04
CN1C(=O)CC(=O)N(C)c2ccccc21 | -0.225 | -0.76
CCC1(C)CC(c2csc(N)n2)CCO1 (configuration not stated) | 0.005 | 0.3
CN(C)c1cnn(-c2ccccc2)c(=O)c1Cl | 0.645 | 0.065
